Test results taken from patent publication US20250011460A1.
No constants are given. Whether binding was seen depends on the method and setting. Some results given as binding are weak or reduced against the parent protein; the word gives no strength. For some of these results: Tags and fused reporters may be left off the sequences shown.

What was measured:
[1] = target: T1, recombinant Sp17 protein (human) (UniProt Q15506); assay: western blot of Sp17 protein on SDS-PAGE, detected with chAB2
T1 sequence (looked up): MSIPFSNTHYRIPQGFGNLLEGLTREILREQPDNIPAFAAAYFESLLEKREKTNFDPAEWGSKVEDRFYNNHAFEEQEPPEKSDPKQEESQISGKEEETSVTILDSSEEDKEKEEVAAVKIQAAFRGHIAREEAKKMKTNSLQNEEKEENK

[2] = target: T2, recombinant 6His-Sp17 protein (human) (UniProt Q15506); assay: surface plasmon resonance (Biacore T200), 6His-Sp17 at 6.25 to 300 nM over chAB2
T2 sequence (looked up): T1 sequence (looked up)

[3] = target: T1, recombinant Sp17 protein (human); assay: western blot of recombinant Sp17 protein
[4] = target: T1, recombinant Sp17 protein (human); assay: western blot of Sp17 protein
[5] = target: T1, recombinant Sp17 protein (human); assay: ELISA of Fab phage display clones
[6] = target: T1, recombinant Sp17 protein (human); assay: western blot
[7] = target: T1, recombinant Sp17 protein (human); assay: western blot of Sp17 protein and a tumor cell lysate

B1: mouse-human chimeric anti-Sp17 IgG2a/kappa monoclonal antibody chAB2 (antibody, V domains shown, not shown: a dimerising Fc or GST)
VH: QVQLQQSGAEVKKPGSSVKVSCKASGGTFSSYAISWVRQAPGQGLEWMGRIIPILGIANYAQKFQGRVTITADKSTSTAYMELSSLRSEDTAVYYCARPSEEVVAAYGAFDIWGQGTTVTVSS
VL: EIVLTQSPLSLPVRPGEPASISCRASQSLLRSDGFNYLDWYLQKPGQSPQLLVYLGSNRASGVPDRFSGSGSGTDFTLKISRVEAEDVGVYYCMQAVQTPYIFGQGTKLEIK
binding [1]: binds | binding [2]: binds | binding [3]: binds | binding [4]: binds

B2: anti-Sp17 Fab (best-performing clone from the Fab phage display library) (Fab, V domains shown)
VH: B1 VH
VL: B1 VL
binding [5]: binds

B3: human anti-Sp17 IgG4/kappa monoclonal antibody SP17-AB2 (antibody, V domains shown)
VH: B1 VH
VL: EIVLTQSPLSLPVRPGEPASISCRASQSLLRSDGFNYLDWYLQKPGQSPQLLVYLGSNRASGVPDRFSGSGSGTDFTLKISRVEAEDVGVYYCMQAVQTPYIFGQGTKLEIKR
binding [6]: binds | binding [7]: binds
